We go through 39 compounds from PubChem BioAssay AID2685 (National Center for Advancing Translational Sciences (NCATS), 2010).

This test is described as follows: qHTS Assay for Lipid Storage Modulators in Drosophila S3 Cells.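 For cell number change: cells counted by Cell Tracker Red CMTPX staining in the red channel.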 The settings on record: BODIPY lipid droplet fluorescence, 18-24 h; for cell number change: measured here: cell count max response, cells fed with added oleic acid. Summed up: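 Drosophila S3 cells loaded with oleic acid (400 uM, as added) and compounds at several concentrations; lipid droplets imaged by 488-nm laser-scanning cytometry, 500–530 nm intensity and object ratio to cell channel. Percent activity normalized to 20 uM Triacsin C.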

[1] abbreviates: measured here: lipid fluorescence (Fed channel) AC50, cells fed with added oleic acid.
The mark [2] stands for this setting: measured here: cell number channel AC50, cells fed with added oleic acid.

This is one part of the list. The main result of the screen is listed elsewhere. These columns were measured beside it and carry no call. Most of these compounds were active or inconclusive in the main read-out, so they are no random draw. Words in brackets tell the shape of the fitted curve; partial curves, single points and poor fits give uncertain potencies.

Take `C[N+](C)(C)CCOC(=O)C1(c2ccccc2)CCCC1`: the cell number change is -9.51%.
For the compound `CCOC(=O)c1ccc(N2CCOCC2)c(NS(=O)(=O)c2ccc(F)cc2)c1`, the cell number change amounted to 13.5%. For the same compound, under setting [1], the AC50 was 0.461 µM [rising, full curve].
Regarding `O=C(N/N=C/c1ccco1)c1ccc2nc[nH]c2c1`, the cell number change was -9.04%. Also, under setting [1], the half-maximal activity concentration (AC50) was 0.092 µM [falling, full curve, poor fit].
Regarding `COC(=O)C1CCN(c2nc3ccccc3nc2C(C#N)C(=O)NCCc2ccccc2)CC1` (configuration not stated), the cell number change was -21.4%. Also, the AC50 under setting [1] is 0.00461 µM [falling, full curve, poor fit].
Regarding `COc1ccc(S(=O)(=O)N(C)CC(=O)Nc2ccccc2OC)cc1C`, the cell number change amounted to 99.2%. The AC50 under setting [2] is 16.4 µM [rising, partial curve]. In addition, the AC50 under setting [1] is 23.1 µM [rising, partial curve].
On to `O=C(Cn1cc(F)c(=O)[nH]c1=O)NCCO`, for which the AC50 under setting [2] was 0.13 µM [rising, full curve, poor fit].
Consider `COc1ccc(OC)c(NC(=O)CCCC(=O)NC2CCCCC2)c1`, for which, under setting [1], the AC50 is 0.146 µM [falling, full curve, poor fit].
As to `CC(=O)Nc1ccc(C(=O)CS(=O)(=O)c2ccc(C)cc2)cc1`, the cell number change was 19%.
Take `Cc1ccccc1NC(=O)c1cc(S(=O)(=O)c2ccccc2)ccc1Cl`: the cell number change came out at 27.5%. Also, the AC50 under setting [1] was 1.84 µM [rising, partial curve].
As for `CCc1cc2c(=O)n(CCC(C)C)c(=S)[nH]c2s1`, the cell number change is 38.6%. In addition, the AC50 under setting [2] was 4.11 µM [rising, full curve, poor fit]. Moreover, the half-maximal activity concentration (AC50) under setting [1] is 2.06 µM [rising, partial curve].
Regarding `CN(C)CC(C)(C)CNS(=O)(=O)c1ccc(Cl)c(Cl)c1`, the cell number change came to 2.07%.
For the compound `Cc1ccc(N2C(=O)CC(C3CCCO3)C2=O)cc1` (configuration not stated), the AC50 under setting [2] is 6.51 µM [falling, single point].
On to `Cc1cccc(OCC(=O)N/N=C/CC(C)c2ccccc2)c1C` (configuration not stated), for which the cell number change is -8.73%. Also, the AC50 under setting [1] was 6.51 µM [rising, single point].
As for `CC(=O)c1ccc(NC(=O)C(C)Sc2nnc3ccccn23)cc1` (configuration not stated), the cell number change amounted to 11.9%. For the same compound, under setting [1], the AC50 was 29.1 µM [rising, single point].
Turning to `COc1ccc(NS(=O)(=O)c2cccc(C(=O)NCc3ccccc3CN3CCCC3)c2)cc1`, the cell number change is -6.01%. The concentration at half-maximal activity (AC50) under setting [1] was 0.0291 µM [falling, full curve, poor fit].
Turning to `CCOC(=O)c1c(-c2cccc([N+](=O)[O-])c2)csc1NC(=O)C1CCCCC1`, the cell number change was -53.8%. The AC50 under setting [2] was 18.4 µM [falling, single point]. In addition, the AC50 under setting [1] is 20.6 µM [falling, partial curve].
In the case of `COc1ccc(NC(=O)NNS(=O)(=O)c2cc(C)ccc2C)cc1OC`, the cell number change turned out to be 40.6%. Besides, the AC50 under setting [2] is 2.91 µM [rising, full curve]. For the same compound, the AC50 under setting [1] was 29.1 µM [rising, partial curve].
Regarding `COc1cc(/C=C2\SC(N)=NC2=O)ccc1O`, the cell number change is -25.3%.
`O=C(CSc1ncn[nH]1)Nc1ccccc1-c1ccccc1`: the cell number change amounted to 30.5%. In addition, under setting [2], the AC50 is 1.03 µM [rising, full curve, poor fit]. Moreover, the half-maximal activity concentration (AC50) under setting [1] was 3.66 µM [falling, partial curve, poor fit].
For `N#C/C(=C\C=C\c1ccccc1[N+](=O)[O-])C(=O)NCc1ccccc1`, the cell number change is -19.2%. The AC50 under setting [2] was 0.0731 µM [falling, full curve, poor fit].
As to `O=C(Nc1ccc2c(c1)OCCO2)c1cccc(S(=O)(=O)N2CCOCC2)c1`, the cell number change turned out to be 3.5%. Also, the AC50 under setting [1] was 0.259 µM [rising, full curve, poor fit].
As to `CC1CCC(NC(=O)C2CCN(c3cnccn3)CC2)CC1` (configuration not stated), the AC50 under setting [2] is 1.3 µM [rising, partial curve].
With `Cc1ccc(NC(=O)c2cc(C(=O)c3cc(Cl)ccc3O)cn(-c3ccc(C)cc3)c2=O)cc1`, the cell number change turned out to be 21.6%. Moreover, the concentration at half-maximal activity (AC50) under setting [1] was 29.1 µM [rising, single point].
`CC(=O)c1c(N2CCN(C(=O)c3ccco3)CC2)nc(=S)n(-c2ccccc2)c1C`: the cell number change was 6%. The AC50 under setting [1] was 0.0651 µM [falling, full curve, poor fit].
Consider `O=C(N[C@@H](Cc1ccccc1)c1nc2ccccc2[nH]1)c1cc([N+](=O)[O-])ccc1Cl`, for which the cell number change was -12%. Further, the AC50 under setting [1] is 14.6 µM [rising, partial curve].
As for `CCOC(=O)c1cc(C#N)c(NCc2ccccc2)nc1C`, the cell number change is 1.42%. In addition, the concentration at half-maximal activity (AC50) under setting [1] is 1.84 µM [rising, partial curve].
In the case of `CSc1c(C#N)c(N)nc2sc(C(=O)c3ccccc3)c(N)c12`, the cell number change turned out to be 57.4%. For the same compound, under setting [2], the AC50 was 29.1 µM [rising, single point]. Besides, under setting [1], the AC50 was 4.61 µM [falling, full curve, poor fit].
Turning to `O=C(CCC(=O)c1ccc(F)cc1)NCC1(N2CCCCC2)CCCCC1`, the cell number change is -0.245%.
In the case of `CN(C)S(=O)(=O)c1ccc2c(c1)nc(CCC(=O)NCCc1ccc(Cl)cc1)n2C`, the cell number change stood at 12.1%.
On to `O=C(CSc1nc(NS(=O)(=O)c2ccccc2)cc(=O)[nH]1)Nc1ccc(F)cc1`, for which the cell number change is -38.5%. Besides, the AC50 under setting [2] is 23.1 µM [falling, partial curve].
On to `CC(C)Nc1nc(-c2ccccc2)nnc1-c1ccccc1`, for which the cell number change was -12.3%.
Regarding `Cc1oc(-c2ccccc2F)nc1CS(=O)(=O)CC(=O)N1CCN(c2ccccc2)CC1`, the cell number change was -13.7%. For the same compound, the AC50 under setting [1] is 0.82 µM [rising, single point].
As to `COc1cc(/C=C/C(=O)CC(=O)/C=C/c2ccc(O)c(OC)c2)ccc1O`, the cell number change was -86.3%. Besides, the AC50 under setting [2] is 18.4 µM [falling, single point]. Further, the AC50 under setting [1] is 16.4 µM [falling, single point].
`O=c1c(Oc2ccccc2F)coc2cc(OCc3cnn(-c4ccccc4)c3)ccc12`: the cell number change is -48.8%. The AC50 under setting [2] is 25.9 µM [falling, single point]. Further, under setting [1], the half-maximal activity concentration (AC50) was 0.103 µM [falling, full curve, poor fit].
`O=C(Nc1ccccc1C(F)(F)F)NC1CCCCC1`: the cell number change stood at 25.4%.
As for `Cc1cc(C(=O)CCC(=O)NCc2ccccc2F)c(C)s1`, the cell number change was 9.64%.
Consider `O=C(NCc1ccc(Cl)cc1)c1ccc(CSc2nc3ccncc3[nH]2)cc1`, for which the cell number change stood at 5.98%. In addition, the AC50 under setting [1] was 0.116 µM [falling, full curve, poor fit].
For `CCCCC(CC)C(=O)Nc1ccccc1C#N` (configuration not stated), under setting [2], the AC50 was 4.61 µM [rising, single point].
Regarding `O=C(Nc1cccnc1)Nc1cccc(F)c1`, the cell number change was -14.9%. Moreover, the AC50 under setting [1] is 5.17 µM [rising, full curve, poor fit].
